Test results from patent US20060193784A1 (priority 2005, published 2006).
Where two headings read alike, the source gives them in different places.

Experiments:
in vivo = details: male, New Zealand albino, rabbit, iv, 100 ug/kg
[1] = cited from earlier work
[2] = after oral administration (Renner et al.)

CN1[C@@H]2C[C@@H](OC(=O)[C@H](CO)c3ccccc3)C[C@H]1[C@@H]1O[C@@H]12 [scopolamine, L-(−)-hyoscine]
AUC(0-inf) (in vivo): 1280 ng·h/mL
non-metabolized scopolamine excreted in urine [1, 2]: 2.6%
time until peak plasma concentration is reached [1, 2]: 30 min
time until peak plasma concentration is reached ([1]; after transdermal dosing (Cintron et al.; Shaw et al.)): 720 to 960 min
